# Percent effect of library compounds

Amino acid sequences for entries named in this document (tags omitted). Residues count along the entry.
UniProt Q4DA54, 1-478: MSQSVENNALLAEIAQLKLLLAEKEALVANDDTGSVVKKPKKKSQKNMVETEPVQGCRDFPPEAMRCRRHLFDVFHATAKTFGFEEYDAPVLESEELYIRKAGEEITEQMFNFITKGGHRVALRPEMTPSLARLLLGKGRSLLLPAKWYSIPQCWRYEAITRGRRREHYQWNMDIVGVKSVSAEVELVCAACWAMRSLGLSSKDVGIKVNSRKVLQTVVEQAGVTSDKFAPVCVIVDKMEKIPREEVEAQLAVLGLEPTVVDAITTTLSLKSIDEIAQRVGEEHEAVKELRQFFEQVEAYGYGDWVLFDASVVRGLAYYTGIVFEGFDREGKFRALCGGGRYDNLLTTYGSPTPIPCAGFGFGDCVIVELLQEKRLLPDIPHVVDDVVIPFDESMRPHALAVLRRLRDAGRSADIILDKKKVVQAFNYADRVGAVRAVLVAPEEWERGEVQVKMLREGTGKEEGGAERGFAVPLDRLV

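Enzyme assay of histidyl-tRNA synthetase; the read-out is not stated. Target: Histidine-tRNA ligase, Trypanosoma cruzi CL Brener (UniProt Q4DA54). Compounds at 30 µM. Direction is inferred from retests: higher values go with stronger inhibition. About 69,000 compounds were tested under these conditions; 0.045% (about 31) showed 50% or more at least once.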

Values are the deposited “Percent Effect”, in %. How 0% and 100% were set is not recorded. Most values in the screen are low, and negative values occur. The compounds are a random part of those screened.

| # | Compound | percent effect |
|---|---|---|
| 1 | `Cc1ccccc1C(O)CNS(=O)(=O)Cc1cccc(C#N)c1` (stereo not given) | 3.061% |
| 2 | `Cc1cccnc1CNC(=O)CC1C(=O)NCCN1CC(C)(C)C` (stereo not given) | -0.5181% |
| 3 | `Cc1cn2c(n1)C(CNCc1cccc3c1OCO3)CCC2` (stereo not given) | 15% |
| 4 | `CN(c1ccc(C#N)cn1)C1CCCN(Cc2noc(C3CC3)n2)C1` (stereo not given) | 6.173% |
| 5 | `CS(=O)(=O)N[C@H]1CN(CCOCc2ccccc2)C[C@@H]1C1CC1` | 4.545% |
| 6 | `Cn1ccnc1CN1CCN(Cc2ccc(C#N)cc2)CC1` | 8.455% |
| 7 | `COc1ccc(N(C(=O)c2ccc(C)nc2)C(C)C)cc1F` | 8.287% |
| 8 | `CC(c1nc(C2CC2)no1)N1CCN(CCc2ccncc2)CC1` (stereo not given) | 0% |
| 9 | `CCCc1ncc(C(=O)N2CCOc3ncccc32)s1` | 4.255% |
| 10 | `Cc1ccc(F)cc1C(=O)OCC1CCCN1C(N)=O` (stereo not given) | 3.448% |
| 11 | `O=S(=O)(CCCNC1CCc2ncnn2C1)c1ccccc1` (stereo not given) | 1.994% |
| 12 | `Cc1nc(C2CN(C)CCO2)cc(N2CCC(C(N)=O)CC2)n1` (stereo not given) | 4.494% |
| 13 | `CC(C)(C)C(=O)N[C@H]1CC[C@H](Nc2nccc(-c3ccncc3)n2)C1` | 8.434% |
| 14 | `Cc1cc(C(=O)N2CCCC2c2noc(C(C)C)n2)c(C)o1` (stereo not given) | 3.79% |
| 15 | `CN(Cc1cc[nH]n1)C(=O)c1cn(Cc2c(F)cccc2F)nn1` | 6.186% |
| 16 | `O=C(c1cnccn1)N1CCC(Cc2cnc3[nH]ccc3c2)CC1` | 9.574% |
| 17 | `O=C(CCC(=O)Nc1nnc(C(F)(F)F)s1)NCC1CCCO1` (stereo not given) | 8.537% |
| 18 | `CCc1nsc(NC2CCCn3nc(CC)nc32)n1` (stereo not given) | 5.394% |
| 19 | `Cc1ccc(-c2nc(CCNC(=O)C3CC(=O)N(C)C3)cs2)cc1` (stereo not given) | 6.748% |
| 20 | `O=C(c1ccoc1)N1CC[C@H]2C[C@@H](c3ccncn3)O[C@@H]2C1` | 2.479% |
| 21 | `CCCS(=O)(=O)N1CCO[C@H]2[C@H](OCc3ccccn3)CC[C@@H]21` | -17.65% |
| 22 | `Cc1noc(C(C)C)c1C(=O)NCC1CCCN1Cc1ccccc1` (stereo not given) | -0.6369% |
| 23 | `Cc1cnn(C2CN(CC(O)c3ccc4c(c3)OCCO4)C2)c1` (stereo not given) | 13.69% |
| 24 | `Cn1ccnc1CC1CCCN(Cc2noc(C3CC3)n2)C1` (stereo not given) | -1.143% |
| 25 | `CCc1nc2n(n1)CCCC2NC(=O)Nc1ccc(SC)c(F)c1` (stereo not given) | 4.202% |
| 26 | `CCN1N=C(C(=O)N2CCCC(c3nc(C)c(C)s3)C2)CCC1=O` (stereo not given) | 4.023% |
| 27 | `O=C1CCC2(CCCN(C(=O)c3ccc[nH]3)C2)CN1CCc1c[nH]cn1` (stereo not given) | 8.911% |
| 28 | `O=C(c1cccc(C2CCNC2)c1)N1CCC(c2ccncc2)CC1` (stereo not given) | 19.51% |
| 29 | `N#Cc1cccnc1NCc1cccnc1N1CCCCC1` | 9.091% |
| 30 | `Cc1[nH]ncc1C(=O)N(CC(C)C)CC(O)c1ccc(F)cc1` (stereo not given) | 4.972% |
| 31 | `CN(CC(=O)N(CCC#N)c1ccccc1)C1CCc2ccccc21` (stereo not given) | 3.097% |
| 32 | `Cc1cccc(Oc2ccccc2CNC(=O)C2CCC(=O)NC2)c1` (stereo not given) | 3.03% |
| 33 | `CCNC(=O)NC(=O)CN1CCOC(c2cccc(Br)c2)C1` (stereo not given) | 2.618% |
| 34 | `C[C@@H]1CN(C2CCOC2)C[C@]12CCN(c1cccnc1)C2=O` (stereo not given in full) | -1.149% |
| 35 | `Cn1cncc1C(=O)N1CCOC2(COCCN(CC3CC3)C2)C1` (stereo not given) | 6.145% |
| 36 | `Cc1cc(C)nc(Nc2cccc(C3CCCN(CC4CC4)C3)n2)n1` (stereo not given) | 0% |
| 37 | `CCOc1ccccc1CCNC(=O)NCC(O)c1cccs1` (stereo not given) | 1.478% |
| 38 | `O=C(NCCNc1ncccn1)C1CCN(CC(F)(F)F)CC1` | 7.519% |
| 39 | `COC(=O)[C@H](CCSC)NC(=O)Cc1c(C)nn(-c2ccccc2)c1C` | -3.727% |
| 40 | `Cc1cn(CC(=O)NCC(=O)NC2CC2)c2ccccc12` | 2.116% |
| 41 | `Cc1ccc(C)c(CC(=O)Nc2cccc(C(=O)N(C)C)n2)c1` | 5.419% |
| 42 | `O=C(CSCC1CC1)N1CCCC(c2nccn2Cc2ccccn2)C1` (stereo not given) | 2.041% |
| 43 | `O=C(COc1ccccc1)NCC1CCN(Cc2ccsc2)CC1` | 4.523% |
| 44 | `Cc1ccc(-c2nc(CN3CCC(C(=O)N(C)C)CC3)cs2)o1` | 3.383% |
| 45 | `Cn1nnc(C2(NC(=O)c3ccccc3)CCCC2)n1` | 0% |
| 46 | `c1cc(CNCc2ccnc(N3CCOCC3)c2)c2c(c1)OCCCO2` | 4.233% |
| 47 | `CCOCC(=O)N1CC(=O)Nc2cc(Br)ccc21` | 0% |
| 48 | `Cc1cc(C(=O)N2C[C@@H]3CCCO[C@@H]3[C@H](N(C)C(C)C)C2)c(C)[nH]1` | 0% |
| 49 | `COC(=O)c1cccc(C(=O)N2CCCCC2CCn2ccnc2C)c1` (stereo not given) | 2.075% |
| 50 | `COC(=O)C(c1cc(F)ccc1F)N(C)C(=O)c1cnccn1` (stereo not given) | -0.8596% |
| 51 | `CCOC(=O)N1C[C@H]2CC[C@@H]1CN(Cc1ccccc1)C2` | -0.5236% |
| 52 | `O=c1c2cnc(N3CCCCC3)nc2ccn1Cc1ccco1` | 2.632% |
| 53 | `CCCN1C[C@H]2CC[C@@H]1CN(C(=O)Cc1c(C)nc(CC)[nH]c1=O)C2` | -5.814% |
| 54 | `COCCS(=O)(=O)NC(C)c1ccccc1Br` (stereo not given) | 3.982% |
| 55 | `COc1c(C2CCCN2C(=O)Cc2c(C)noc2C)c(C)nn1C` (stereo not given) | 3.759% |
| 56 | `CO[C@@]1(C)C[C@@H](O)C12CCN(C(=O)C1(c3ccccc3F)CC1)CC2` | -0.8% |
| 57 | `Cc1cc(C)n(CC2(CNC(=O)C(c3ccccc3C)N(C)C)CC2)n1` (stereo not given) | 4.459% |
| 58 | `CC(C)[C@@H]1CN(CCOc2ccccc2)C[C@H]1NS(=O)(=O)N(C)C` | 8.427% |
| 59 | `Cc1ccc(O)c(C(=O)N2CCC(CN3CCCCCC3)CC2)c1` | 18.72% |
| 60 | `O=S(=O)(NCC(O)c1cccs1)c1ccccc1Cl` (stereo not given) | -1.031% |
| 61 | `O=C1NCC2(CCCN(C(=O)c3ccc4c(c3)CCO4)C2)O1` (stereo not given) | 7.303% |
| 62 | `CCC(Nc1nc(C(F)(F)F)nc2ccccc12)C(=O)O` (stereo not given) | 3.061% |
| 63 | `CC1(NC(=O)Cc2csc(C(C)(C)C)n2)CCS(=O)(=O)C1` (stereo not given) | -2.479% |
| 64 | `O=C(NCc1ccco1)[C@@]12CCO[C@@H]1CCN(C1CCC1)C2` | 5.882% |
| 65 | `CC(=O)N1C[C@@H]2CN(Cc3cccnc3)CCO[C@@H]2C1` | 9.091% |
| 66 | `COc1ncccc1C(=O)N1CCCC1c1c(C)n[nH]c1C` (stereo not given) | 3.704% |
| 67 | `O=C(Nc1cccnc1)N(Cc1ccccc1)C1CC1` | 5% |
| 68 | `CN(CCCN1CCCC1)[C@@H]1c2ccccc2C2(CCNCC2)[C@H]1O` | -2.5% |
| 69 | `N#CCCN(Cc1ccco1)C(=O)CCCc1ccccc1` | -6.024% |
| 70 | `O=S(=O)(c1ccccc1)N1CCC2(CCCN2Cc2ccccc2Cl)C1` (stereo not given) | 10.78% |
| 71 | `OCC1(NCc2cnc(-c3ccsc3)s2)CCOCC1` | 7.895% |
| 72 | `Cc1c(F)cccc1S(=O)(=O)NC(C)(C)CN` | 3.448% |
| 73 | `Cc1nc(NCc2ccc(C)o2)cc(C2CCNCC2)n1` | 4.327% |
| 74 | `Cc1cc(C(F)(F)F)nn1CCNC(=O)C(C)n1ccnc1C(C)C` (stereo not given) | -0.5525% |
| 75 | `COc1cccc2c1OCC(C(=O)N1CCN(S(C)(=O)=O)CC1)C2` (stereo not given) | -2.479% |
| 76 | `CC(C)NC(=O)[C@H]1C[C@@H]2[C@@H](C1)OCCN2Cc1ccccn1` | 2.488% |
| 77 | `c1coc(CNc2nnc(Cc3ccsc3)o2)c1` | 3.947% |
| 78 | `CN(CCc1ncnn1C1Cc2ccccc2C1)C1CCS(=O)(=O)C1` (stereo not given) | 10.45% |
| 79 | `Cc1ncccc1C(=O)Nc1cccc(Cn2ccccc2=O)c1` | 7.035% |
| 80 | `c1ccc(COC[C@@]23CCC[C@@H]2CN(Cc2ccccn2)C3)nc1` | 1.075% |
| 81 | `Cc1cccc(CO[C@H]2CO[C@@]3(CCN(S(=O)(=O)N(C)C)C3)C2)n1` | -3.448% |
| 82 | `CCc1ccc(CNc2ccccc2CN2CCC(O)CC2)o1` | 2.597% |
| 83 | `COc1cccc(C(NCc2ccc(SC)cc2)c2nccn2C)c1` (stereo not given) | 9.621% |
| 84 | `CNS(=O)(=O)c1cccc(C(C)NCc2cccc(C)c2C)c1` (stereo not given) | 8.621% |
| 85 | `CC(C)CN1CCCn2nc(CNC(=O)NC(C)(C)C)cc2C1` | 5.464% |
| 86 | `CCN(C)c1ncnc2c1CCN(Cc1csc(C)n1)CC2` | 4.972% |
| 87 | `O=C1[C@@H]2CCN(C3CCOCC3)C[C@@H]2OCCN1Cc1cccnc1` | 1.97% |
| 88 | `Cn1cccc1C(=O)N1CCO[C@H]2[C@H](OCc3cccnc3)CC[C@@H]21` | 4.902% |
| 89 | `Cc1noc(C)c1CN(C)C(=O)C1(NS(C)(=O)=O)CCCCC1` | 15.29% |
| 90 | `COCCn1cnc(-c2cc(C(=O)NC(C)C)c3ccccn23)c1` | 8.589% |
| 91 | `O=C1[C@@H]2CCN(C3CCC3)C[C@@H]2OCCN1Cc1ccncc1` | 1.935% |
| 92 | `Cc1cc(C(F)(F)F)nn1C(C)C(=O)NN1CCOCC1` (stereo not given) | 0% |
| 93 | `Cc1cc(CN2CCO[C@H]3[C@H](OCc4csc(C)n4)CC[C@@H]32)no1` | 5.6% |
| 94 | `COCCN1CCN(CC(=O)N(C)Cc2cccc(F)c2)CC1C` (stereo not given) | 9.677% |

Repeated from the top, 6 entries:

Result for Cc1ccccc1C(O)CNS(=O)(=O)Cc1cccc(C#N)c1 (stereo not given) was 3.061%.
Result for Cc1cccnc1CNC(=O)CC1C(=O)NCCN1CC(C)(C)C (stereo not given) was -0.5181%.
Result for Cc1cn2c(n1)C(CNCc1cccc3c1OCO3)CCC2 (stereo not given) was 15%.
Result for CN(c1ccc(C#N)cn1)C1CCCN(Cc2noc(C3CC3)n2)C1 (stereo not given) was 6.173%.
Result for CS(=O)(=O)N[C@H]1CN(CCOCc2ccccc2)C[C@@H]1C1CC1 was 4.545%.
Result for Cn1ccnc1CN1CCN(Cc2ccc(C#N)cc2)CC1 was 8.455%.

Source: ChEMBL document CHEMBL3988442, “University of Dundee, Small-Polar-MMV Screening Library” (2021).